For at least one compound, name, drawing or mass did not settle the structure.
Test system: human coronary artery smooth muscle cells (CASMC)
Assay: Transcriptome analysis (cDNA arrays) of treated cultured CASMC
Assay type: cell-based
Details: lo0ng/ml rapamycin, 24 hours
Description: To adapt the transcriptional profile of cultured human coronary artery smooth muscle cells (CASMC) (Clonetics) to that of neointima, CASMC were stimulated with IFN-g and performed transcriptome analysis as described above. CASMC were cultured as described in the manufacter's manual in growth medium until 50% confluency was reached. Afterwards cells were stimulated with 1000 U/ml IFN-γ (R&D, Germany) for 16 hours at 37° C. Cells were washed twice in PBS and RNA preparation, cDNA synthesis and amplification and transcriptome analysis was performed as described above.
As proliferating CASMC overexpress FKBP12 like neointima, this cell line can be employed as a potential surrogate cell line for neointima in respect to therapeutic effects of rapamycin. Therefore, in a first step, CASMC were incubated with lo0ng/ml rapamycin (Sigma) for 24 hours and transcriptome analysis was performed in order to monitore the therapeutic effect.
Afterwards, microscopic specimen of in-stent restenotic tissue are incubated with rapamycin and transcriptome analysis was performed as described herein above. Transcriptome/gene expression pattern of rapamycin treated CASMC was compared to the transcriptome of rapamycin-treated neointima to measured the effectiveness of CASMC as a surrogate cell line for neointima.

In the case of CO[C@H]1C[C@@H]2CC[C@@H](C)[C@@](O)(O2)C(=O)C(=O)N2CCCC[C@H]2C(=O)O[C@H]([C@H](C)C[C@@H]2CC[C@@H](O)[C@H](OC)C2)CC(=O)[C@H](C)/C=C(\C)[C@@H](O)[C@@H](OC)C(=O)[C@H](C)C[C@H](C)/C=C/C=C/C=C/1C [rapamycin, reference compound], the “transcriptome of rapamycin treated CASMC” value is reported as “Tumorsuppressor genes and proliferation-inhibiting genes have upregulated”.

— patent US20040048816A1, “Restenosis treatment” (priority 2000, published 2004)
